Measured values as given in article PMC5171868.
These are yes or no findings as the source states them, for the method shown. In cells and extracts the contact can be indirect. Some binding calls cover weakened binding; strength is not graded here.

Sequences of proteins named here, by UniProt entry; tags and fusion partners are left off. A change or cut given only in a name is not applied to a line headed by its entry. Residues count along the entry.
UniProt Q16665: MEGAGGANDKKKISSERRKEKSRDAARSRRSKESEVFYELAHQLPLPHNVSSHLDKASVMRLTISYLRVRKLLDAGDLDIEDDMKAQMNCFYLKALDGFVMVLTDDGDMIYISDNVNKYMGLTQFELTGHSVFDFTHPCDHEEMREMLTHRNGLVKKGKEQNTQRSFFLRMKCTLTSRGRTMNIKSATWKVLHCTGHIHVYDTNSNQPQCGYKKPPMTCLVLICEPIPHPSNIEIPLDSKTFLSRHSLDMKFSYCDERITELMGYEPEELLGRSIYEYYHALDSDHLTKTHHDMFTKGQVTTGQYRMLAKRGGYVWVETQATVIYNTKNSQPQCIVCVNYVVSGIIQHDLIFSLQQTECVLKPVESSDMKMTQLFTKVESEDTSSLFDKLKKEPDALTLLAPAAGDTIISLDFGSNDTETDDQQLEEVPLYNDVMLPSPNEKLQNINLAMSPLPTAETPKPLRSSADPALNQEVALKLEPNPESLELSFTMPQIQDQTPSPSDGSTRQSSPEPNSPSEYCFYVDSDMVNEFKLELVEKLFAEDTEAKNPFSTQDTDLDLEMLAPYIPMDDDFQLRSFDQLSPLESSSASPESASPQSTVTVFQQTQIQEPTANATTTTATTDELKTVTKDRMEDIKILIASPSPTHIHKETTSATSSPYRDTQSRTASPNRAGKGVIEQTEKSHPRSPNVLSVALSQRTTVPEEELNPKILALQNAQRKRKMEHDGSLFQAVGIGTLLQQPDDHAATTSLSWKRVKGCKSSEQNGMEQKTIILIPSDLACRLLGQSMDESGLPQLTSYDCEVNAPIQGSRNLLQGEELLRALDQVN
EGFP-HIF-1α 1–786: residues 1-786 of Q16665
EGFP-HIF-1α 1–575: residues 1-575 of Q16665
EGFP-HIF-1α 331–575 (ODD domain): residues 331-575 of Q16665
UniProt P15559: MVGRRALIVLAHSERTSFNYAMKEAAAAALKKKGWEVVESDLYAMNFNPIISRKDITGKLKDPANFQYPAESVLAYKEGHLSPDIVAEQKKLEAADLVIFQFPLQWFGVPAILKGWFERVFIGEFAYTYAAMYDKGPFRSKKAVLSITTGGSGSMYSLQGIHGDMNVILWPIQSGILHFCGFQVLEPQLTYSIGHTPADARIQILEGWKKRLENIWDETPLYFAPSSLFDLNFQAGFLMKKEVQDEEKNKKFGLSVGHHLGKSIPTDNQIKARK

How the values were obtained:
[1] = target: HIF-1α (hypoxia-inducible factor 1α), endogenous (human (endogenous in RKO and MDA-MB-231)) (UniProt Q16665); assay: co-IP; cytosolic fraction of RKO cells (20 or 0.5% O2, 2 h; Tween 20 lysis buffer); 0.5 mg protein precipitated with 0.5 μg anti-HIF-1α or anti-NQO1 antibody
[2] = target: HIF-1α (hypoxia-inducible factor 1α), endogenous (human (endogenous in RKO and MDA-MB-231)) (UniProt Q16665); assay: co-IP; endogenous proteins; RKO cells exposed to 20 or 0.5% O2 for 2 h; lysis in RIPA/PBS (33% v/v); IP with anti-HIF-1α or anti-NQO1 antibody, normal IgG as control; Protein G-magnetic beads, 4 °C
[3] = target: HIF-1α-myc-His6 (human) (UniProt Q16665); assay: pull-down; His6-tagged protein affinity-purified and conjugated to Ni-NTA resin; incubated 2 h at 4 °C with 1 mg total protein of RKO cells exposed to hypoxia for 2 h; immunoblot; only the target purified
[4] = target: EGFP-HIF-1α 1–575 (human) (UniProt Q16665); assay: pull-down; EGFP fusion protein affinity-purified and conjugated to anti-GFP beads; incubated 2 h at 4 °C with 1 mg total protein of RKO cells exposed to hypoxia for 2 h; immunoblot with anti-GFP and anti-NQO1; only the target purified
[5] = target: EGFP-HIF-1α 1–786 (human) (UniProt Q16665); assay: as above
[6] = target: EGFP-HIF-1α 331–575 (ODD domain) (human) (UniProt Q16665); assay: as above
[7] = target: EGFP-HIF-1α full-length (human) (UniProt Q16665); assay: as above
[8] = target: NQO1-myc-His6 (human) (UniProt P15559); assay: pull-down; His6-tagged protein affinity-purified and conjugated to Ni-NTA resin; incubated 2 h at 4 °C with 1 mg total protein of RKO cells exposed to hypoxia for 2 h; immunoblot; only the target purified

Measured: binding

NAD(P)H:quinone oxidoreductase 1 (NQO1), endogenous (from UniProt P15559 1-274) (enzyme)
not listed: [8]
binds: all other assays above

HIF-1α (hypoxia-inducible factor 1α), endogenous (from UniProt Q16665 1-826)
binds: [8]
